Test results from paper doi:10.1101/2023.05.06.539691.
These are yes or no findings as the source states them, for the method shown. Binding seen in cells or lysates may run through a third protein. Some entries that bind do so weakly or less than the wild type. Sequences can lack the tags named with a protein.

T1: FLAG-tagged c-REL (human) (UniProt Q04864)
T1 sequence: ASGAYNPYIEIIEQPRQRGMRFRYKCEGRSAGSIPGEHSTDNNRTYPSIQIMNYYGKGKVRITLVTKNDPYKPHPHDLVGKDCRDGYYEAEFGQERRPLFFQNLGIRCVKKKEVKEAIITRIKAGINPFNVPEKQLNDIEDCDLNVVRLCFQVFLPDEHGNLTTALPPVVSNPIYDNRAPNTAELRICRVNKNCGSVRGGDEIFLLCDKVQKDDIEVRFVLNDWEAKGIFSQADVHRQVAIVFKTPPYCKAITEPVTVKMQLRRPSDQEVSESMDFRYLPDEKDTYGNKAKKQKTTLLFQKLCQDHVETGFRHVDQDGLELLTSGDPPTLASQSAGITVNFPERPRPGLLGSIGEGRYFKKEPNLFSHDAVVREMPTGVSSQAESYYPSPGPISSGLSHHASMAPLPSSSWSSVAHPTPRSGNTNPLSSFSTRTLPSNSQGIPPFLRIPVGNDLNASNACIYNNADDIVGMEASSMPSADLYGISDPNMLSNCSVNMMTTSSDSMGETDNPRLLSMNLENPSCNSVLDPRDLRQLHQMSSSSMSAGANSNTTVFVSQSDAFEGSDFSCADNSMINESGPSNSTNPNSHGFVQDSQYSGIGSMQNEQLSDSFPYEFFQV

T2: FLAG-tagged OTUD4 (OTU domain-containing protein 4) (human) (UniProt Q01804)
T2 sequence: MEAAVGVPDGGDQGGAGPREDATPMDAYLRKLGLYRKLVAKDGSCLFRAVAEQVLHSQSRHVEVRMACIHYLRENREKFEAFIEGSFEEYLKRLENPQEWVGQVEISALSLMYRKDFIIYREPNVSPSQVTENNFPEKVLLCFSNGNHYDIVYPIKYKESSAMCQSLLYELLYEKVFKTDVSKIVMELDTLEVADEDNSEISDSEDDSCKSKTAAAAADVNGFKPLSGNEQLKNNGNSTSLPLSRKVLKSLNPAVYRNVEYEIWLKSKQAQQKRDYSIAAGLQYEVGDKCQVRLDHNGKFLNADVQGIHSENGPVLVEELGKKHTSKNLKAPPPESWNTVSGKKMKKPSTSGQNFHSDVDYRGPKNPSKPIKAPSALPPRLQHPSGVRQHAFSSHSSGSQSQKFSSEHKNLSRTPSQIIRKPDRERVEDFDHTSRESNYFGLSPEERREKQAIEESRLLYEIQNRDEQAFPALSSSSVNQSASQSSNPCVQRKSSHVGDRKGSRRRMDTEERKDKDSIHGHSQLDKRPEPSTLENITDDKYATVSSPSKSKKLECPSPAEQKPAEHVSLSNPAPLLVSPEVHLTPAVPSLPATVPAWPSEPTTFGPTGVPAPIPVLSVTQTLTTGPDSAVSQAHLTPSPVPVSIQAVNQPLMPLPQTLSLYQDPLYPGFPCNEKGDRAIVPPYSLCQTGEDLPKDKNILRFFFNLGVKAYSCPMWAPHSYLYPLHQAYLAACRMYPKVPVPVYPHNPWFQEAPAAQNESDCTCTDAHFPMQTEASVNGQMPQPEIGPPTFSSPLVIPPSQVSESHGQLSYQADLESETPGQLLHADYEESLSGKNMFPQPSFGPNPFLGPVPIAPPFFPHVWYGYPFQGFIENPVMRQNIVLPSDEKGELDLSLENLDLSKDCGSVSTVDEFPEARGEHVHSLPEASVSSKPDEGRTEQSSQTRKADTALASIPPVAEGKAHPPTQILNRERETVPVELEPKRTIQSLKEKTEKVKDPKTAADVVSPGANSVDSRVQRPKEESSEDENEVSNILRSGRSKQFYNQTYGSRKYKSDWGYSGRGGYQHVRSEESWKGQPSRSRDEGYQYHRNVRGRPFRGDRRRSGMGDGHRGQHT

T3: FLAG-OTUD6B (UniProt Q8N6M0)
T3 sequence: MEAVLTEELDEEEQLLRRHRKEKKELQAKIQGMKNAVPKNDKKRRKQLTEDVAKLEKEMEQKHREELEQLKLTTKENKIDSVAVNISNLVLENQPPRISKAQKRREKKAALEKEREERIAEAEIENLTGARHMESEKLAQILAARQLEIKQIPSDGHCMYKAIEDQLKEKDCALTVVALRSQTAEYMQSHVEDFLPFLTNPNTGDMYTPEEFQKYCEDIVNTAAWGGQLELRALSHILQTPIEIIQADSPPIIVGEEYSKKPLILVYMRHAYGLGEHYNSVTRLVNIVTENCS


Tests used:
Test in all cases: co-IP
[1] = molecular target: T1, FLAG-tagged c-REL (human)
[2] = molecular target: T2, FLAG-tagged OTUD4 (OTU domain-containing protein 4) (human)
FLAG-OTUD6B = molecular target: T3, FLAG-OTUD6B

Row | binding [1] | binding [2] | binding (FLAG-OTUD6B) | Binder
1 | binds |  |  | non-tagged OTUD4 (enzyme, UniProt Q01804-1 1-1114) MEAAVGVPDGGDQGGAGPREDATPMDAYLRKLGLYRKLVAKDGSCLFRAVAEQVLHSQSRHVEVRMACIHYLRENREKFEAFIEGSFEEYLKRLENPQEWVGQVEISALSLMYRKDFIIYREPNVSPSQVTENNFPEKVLLCFSNGNHYDIVYPIKYKESSAMCQSLLYELLYEKVFKTDVSKIVMELDTLEVADEDNSEISDSEDDSCKSKTAAAAADVNGFKPLSGNEQLKNNGNSTSLPLSRKVLKSLNPAVYRNVEYEIWLKSKQAQQKRDYSIAAGLQYEVGDKCQVRLDHNGKFLNADVQGIHSENGPVLVEELGKKHTSKNLKAPPPESWNTVSGKKMKKPSTSGQNFHSDVDYRGPKNPSKPIKAPSALPPRLQHPSGVRQHAFSSHSSGSQSQKFSSEHKNLSRTPSQIIRKPDRERVEDFDHTSRESNYFGLSPEERREKQAIEESRLLYEIQNRDEQAFPALSSSSVNQSASQSSNPCVQRKSSHVGDRKGSRRRMDTEERKDKDSIHGHSQLDKRPEPSTLENITDDKYATVSSPSKSKKLECPSPAEQKPAEHVSLSNPAPLLVSPEVHLTPAVPSLPATVPAWPSEPTTFGPTGVPAPIPVLSVTQTLTTGPDSAVSQAHLTPSPVPVSIQAVNQPLMPLPQTLSLYQDPLYPGFPCNEKGDRAIVPPYSLCQTGEDLPKDKNILRFFFNLGVKAYSCPMWAPHSYLYPLHQAYLAACRMYPKVPVPVYPHNPWFQEAPAAQNESDCTCTDAHFPMQTEASVNGQMPQPEIGPPTFSSPLVIPPSQVSESHGQLSYQADLESETPGQLLHADYEESLSGKNMFPQPSFGPNPFLGPVPIAPPFFPHVWYGYPFQGFIENPVMRQNIVLPSDEKGELDLSLENLDLSKDCGSVSTVDEFPEARGEHVHSLPEASVSSKPDEGRTEQSSQTRKADTALASIPPVAEGKAHPPTQILNRERETVPVELEPKRTIQSLKEKTEKVKDPKTAADVVSPGANSVDSRVQRPKEESSEDENEVSNILRSGRSKQFYNQTYGSRKYKSDWGYSGRGGYQHVRSEESWKGQPSRSRDEGYQYHRNVRGRPFRGDRRRSGMGDGHRGQHT
2 |  | binds | no binding | c-REL (as detected in the FLAG-OTUD4 / FLAG-OTUD6B immunoprecipitations of Fig. 3C) (protein, UniProt Q04864-1 1-619) MASGAYNPYIEIIEQPRQRGMRFRYKCEGRSAGSIPGEHSTDNNRTYPSIQIMNYYGKGKVRITLVTKNDPYKPHPHDLVGKDCRDGYYEAEFGQERRPLFFQNLGIRCVKKKEVKEAIITRIKAGINPFNVPEKQLNDIEDCDLNVVRLCFQVFLPDEHGNLTTALPPVVSNPIYDNRAPNTAELRICRVNKNCGSVRGGDEIFLLCDKVQKDDIEVRFVLNDWEAKGIFSQADVHRQVAIVFKTPPYCKAITEPVTVKMQLRRPSDQEVSESMDFRYLPDEKDTYGNKAKKQKTTLLFQKLCQDHVETGFRHVDQDGLELLTSGDPPTLASQSAGITVNFPERPRPGLLGSIGEGRYFKKEPNLFSHDAVVREMPTGVSSQAESYYPSPGPISSGLSHHASMAPLPSSSWSSVAHPTPRSGNTNPLSSFSTRTLPSNSQGIPPFLRIPVGNDLNASNACIYNNADDIVGMEASSMPSADLYGISDPNMLSNCSVNMMTTSSDSMGETDNPRLLSMNLENPSCNSVLDPRDLRQLHQMSSSSMSAGANSNTTVFVSQSDAFEGSDFSCADNSMINESGPSNSTNPNSHGFVQDSQYSGIGSMQNEQLSDSFPYEFFQV
